Reference: publication PMC3808315

Tested on: GST-GmbZIP123 (Glycine max (soybean))
Assay: EMSA
Conditions: DIG Gel Shift kit (Roche) per manufacturer; pH and temperature not stated; recombinant protein; protein details: N-terminal GST (pGEX-6p-1); label: DIG

Sequence | binding result
AAAGACTTGGAAAACAAGGATAACATTTGGTTCTAAAATATATGGAAAAGAAAGATAGC (double strand) [AtSUC1-a mutant] | no binding
AATGTTCTAACTGACAAAAGTCCCTACCTTGC (double strand) [AtSUC1-b mutant] | no binding
GACAATTTCAGGTCGAAAACTCCAAAACGGCAACGCGTGGCT (double strand) [AtcwINV3-a mutant] | no binding
GAGTCCAGACAAAATCTTTATTAACTCTGGTTGAAATCTTGAAAAGTAAAAATAT (double strand) [AtcwINV1-a mutant] | no binding
TAATGACCTACTGCCAAAAGTCCTCACATTGTCA (double strand) [AtSUC5-b mutant] | no binding
TGTATGATATGGTCAAAAAAATTTGGATTAGGAA (double strand) [AtcwINV6-a mutant] | no binding

Construct, isoform or probe ends are uncertain for at least one entry. No signal at the amounts used counts as a negative. At least one verdict was read from the data and is not stated in words by the source.
